# According to PubChem BioAssay AID743255 (National Center for Advancing Translational Sciences (NCATS), 2014):
# By UniProt entry, the sequences of proteins in these tests, tags left out. Where a name states a change or a piece, a line headed by the entry shows the natural chain unless it says otherwise.
# UniProt O94782: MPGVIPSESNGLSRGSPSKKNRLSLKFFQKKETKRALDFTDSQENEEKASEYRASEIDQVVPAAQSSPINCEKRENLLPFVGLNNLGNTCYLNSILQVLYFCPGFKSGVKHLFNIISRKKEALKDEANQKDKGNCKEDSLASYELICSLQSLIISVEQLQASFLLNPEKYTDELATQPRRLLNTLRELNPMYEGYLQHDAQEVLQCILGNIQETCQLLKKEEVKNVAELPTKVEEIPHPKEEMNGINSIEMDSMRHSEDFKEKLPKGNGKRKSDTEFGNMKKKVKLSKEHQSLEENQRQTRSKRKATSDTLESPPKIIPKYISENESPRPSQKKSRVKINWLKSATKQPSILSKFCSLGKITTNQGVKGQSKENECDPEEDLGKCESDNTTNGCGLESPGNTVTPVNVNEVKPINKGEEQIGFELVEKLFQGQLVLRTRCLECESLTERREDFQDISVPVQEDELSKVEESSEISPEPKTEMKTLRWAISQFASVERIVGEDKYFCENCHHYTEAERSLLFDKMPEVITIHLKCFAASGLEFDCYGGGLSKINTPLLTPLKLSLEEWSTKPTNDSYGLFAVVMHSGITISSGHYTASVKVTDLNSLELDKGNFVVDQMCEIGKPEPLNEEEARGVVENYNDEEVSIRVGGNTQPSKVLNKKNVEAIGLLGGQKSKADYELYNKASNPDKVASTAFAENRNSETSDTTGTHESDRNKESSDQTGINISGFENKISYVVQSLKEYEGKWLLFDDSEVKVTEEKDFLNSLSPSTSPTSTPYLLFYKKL
# Hit rate of the full screen: of about 390,000 compounds, about 910 (0.23%) were called active. This list was built around the results that the source calls inconclusive (neither active nor inactive); the mix of calls is not that of the screen. The call rests on the fitted dose curve; in most records, active means well fitted inhibition curve with a large enough effect; inconclusive means small, poorly fitted or top-dose-only effect; inactive means no such curve, though single readings can be large or run the other way. Where the call is inconclusive, the potency comes from a doubtful curve fit.
# Biological target: Ubiquitin carboxyl-terminal hydrolase 1 (Homo sapiens) (UniProt O94782)
# Experiment: Inhibitors of USP1/UAF1: Primary Screen; further: nearly all actives have a fitted effect of over 60% in size
# Details: recombinant USP1/UAF1, Ub-Rhodamine cleavage fluorescence; activity change, negative = inhibition: at 57.1 µM (top of the series)
# Procedure, shortened: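 In this screen, compounds sit with the deubiquitinase complex (1nM) for 15 min at room temperature before Ub-Rho is added at 150nM final. Fluorescence rise is then followed for 6 reads every 60 seconds.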
# On the % scale 0 is the no-effect control and ±100 the full control effect; potency means the concentration at half of the fitted maximal effect.
SMILES,Potency,"activity change, negative = inhibition"
COc1ccc(CCNC(=O)Cn2nnc(-c3ccc(Cl)cc3)n2)cc1OC,"inconclusive: 0.708 µM [inhibitor, full curve, poor fit]",
CCCN(c1ccc(C(C)C)cc1)S(=O)(=O)c1ccc2c(c1)n(C)c(=O)c(=O)n2C,,inactive: -23.2%
Cc1ccc(S(=O)(=O)/N=C(/c2ccccc2)N2CCOCC2)cc1,"inconclusive: 7.94 µM [inhibitor, single point]",
Cc1cc(-c2ccccc2)nc2oc3c(c12)NC(=O)CN(c1ccccc1)C3=O,,inconclusive: -6.73% [inhibitor]
CCN1CCN(Cc2c(O)ccc3c2O/C(=C\c2ccccc2)C3=O)CC1,"inconclusive: 39.8 µM [inhibitor, partial curve]",
c1ccc(-c2nnc(OCc3cccnc3)c3ccccc23)cc1,"inconclusive: 8.91 µM [inhibitor, single point]",
COc1ccc(-c2sc3cc(OC)c(OC)cc3c2-c2ccc(O)cc2)cc1,,inactive: -6.6%
O=C(c1cnc2sccn2c1=O)N1CCc2ccccc2C1,"inconclusive: 31.6 µM [inhibitor, single point]",
Oc1ccc(-c2nc3ccccc3s2)c(O)c1,,inactive: -23%
CC[C@@]1(c2ccccc2)C(=O)N(C(=O)OC)N1C(=O)OC,,inactive: -30.9%
COc1cc(CNc2ccc3[nH]c(=O)[nH]c3c2)cc(Cl)c1OCC(=O)NC(C)(C)C,"inconclusive: 28.2 µM [inhibitor, single point]",
CC1=C(C(N)=O)C(c2cccc(O)c2)n2ncnc2N1 (stereo unspecified),"inconclusive: 0.282 µM [inhibitor, full curve, poor fit]",
O=C(c1cccs1)c1cn(CCOc2ccc(Cl)cc2)c2ccccc12,"inconclusive: 112 µM [inhibitor, partial curve]",
Cc1ccc(-c2cnc(NC(=O)c3cccc(Br)c3)s2)c(C)c1,,inactive: -16.5%
CC1CCc2sc(C(=O)NN=C3CCCC3)cc2C1 (stereo unspecified),"inconclusive: 0.1 µM [inhibitor, full curve, poor fit]",
COCCCNC(=O)Cn1c(=O)n(-c2cccc(C)c2)c(=O)c2c1c1cc(C)ccc1n2C,"inconclusive: 44.7 µM [inhibitor, single point]",
COc1ccc(CNC(=O)Cc2c(C)c3cc4c(C)coc4cc3oc2=O)cc1,,inactive: -5.87%
CC(=O)Nc1cnc(NC(=O)c2cccc(F)c2)cc1C,,inactive: -10.9%
Cc1ccc2cc(CN(C(=O)c3ccco3)c3cccc(C)c3C)c(=O)[nH]c2c1,,inactive: -24.3%
Cc1cccc(N2CCN(C(=O)Cn3nc(C)c4sc5ccccc5c4c3=O)CC2)c1C,,inactive: 1.27%
CN(C)C(=O)CCc1ccc2c3c([nH]c2c1)[C@]1(CCC2CCCC2)[C@@H](C(=O)N2CCOCC2)C[C@H](CC(=O)NCc2cccc(C(F)(F)F)c2)C(=O)N1CC3,"inconclusive: 50.1 µM [inhibitor, partial curve, poor fit]",

# Already shown: entries from further up.
SMILES,Potency,"activity change, negative = inhibition"
Cc1cc(-c2ccccc2)nc2oc3c(c12)NC(=O)CN(c1ccccc1)C3=O,,inconclusive: -6.73% [inhibitor]
CCN1CCN(Cc2c(O)ccc3c2O/C(=C\c2ccccc2)C3=O)CC1,"inconclusive: 39.8 µM [inhibitor, partial curve]",
c1ccc(-c2nnc(OCc3cccnc3)c3ccccc23)cc1,"inconclusive: 8.91 µM [inhibitor, single point]",
COc1ccc(-c2sc3cc(OC)c(OC)cc3c2-c2ccc(O)cc2)cc1,,inactive: -6.6%
O=C(c1cnc2sccn2c1=O)N1CCc2ccccc2C1,"inconclusive: 31.6 µM [inhibitor, single point]",
